{"source": "the supplement of paper PMC8728848", "experiment_in_all_cases": "glycan array binding signal (z-score within array); higher = stronger binding", "settings_in_all_cases": "glycan notation: IUPAC condensed, linker removed", "key": {"[1]": {"target": "Gal(b1-4)GlcNAc(b1-2)Man(a1-6)[GlcNAc(b1-2)Man(a1-3)]Man(b1-4)GlcNAc(b1-4)GlcNAc", "summary_of_the_method": "(§1)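 Arrays were curated from the Consortium for Functional Glycomics database, 3228 in total, and kept only where the protein sequence was available. Binding is expressed as a within-array Z-score. This score was averaged across arrays of the same protein sequence at different concentrations or buffers and across linkers, and negative values can be read as non-binding.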"}, "[2]": {"target": "Gal(b1-4)GlcNAc(b1-2)Man(a1-6)[Man(a1-3)]Man(b1-4)GlcNAc(b1-4)GlcNAc", "summary_of_the_method": "as §1"}, "[3]": {"target": "Gal(b1-4)GlcNAc(b1-2)[Gal(b1-4)GlcNAc(b1-4)]Man(a1-3)[Gal(b1-4)GlcNAc(b1-2)Man(a1-6)]Man(b1-4)GlcNAc(b1-4)GlcNAc", "summary_of_the_method": "as §1"}, "[4]": {"target": "Gal(b1-4)GlcNAc(b1-2)[Gal(b1-4)GlcNAc(b1-4)]Man(a1-3)[Gal(b1-4)GlcNAc(b1-2)[Gal(b1-4)GlcNAc(b1-6)]Man(a1-6)]Man(b1-4)GlcNAc(b1-4)GlcNAc", "summary_of_the_method": "as §1"}, "[5]": {"target": "Gal(b1-4)GlcNAc(b1-2)[Gal(b1-4)GlcNAc(b1-4)]Man(a1-3)[GlcNAc(b1-4)][Gal(b1-4)GlcNAc(b1-2)Man(a1-6)]Man(b1-4)GlcNAc(b1-4)GlcNAc", "summary_of_the_method": "as §1"}, "[6]": {"target": "Gal(b1-4)GlcNAc(b1-2)[Gal(b1-4)GlcNAc(b1-4)]Man(a1-3)[GlcNAc(b1-4)][Gal(b1-4)GlcNAc(b1-2)[Gal(b1-4)GlcNAc(b1-6)]Man(a1-6)]Man(b1-4)GlcNAc(b1-4)GlcNAc", "summary_of_the_method": "as §1"}, "[7]": {"target": "Gal(b1-4)GlcNAc(b1-2)[Gal(b1-4)GlcNAc(b1-6)]Man(a1-6)[Gal(b1-4)GlcNAc(b1-2)Man(a1-3)]Man(b1-4)GlcNAc(b1-4)GlcNAc", "summary_of_the_method": "as §1"}, "[8]": {"target": "Gal(b1-4)GlcNAc(b1-2)[Gal(b1-4)GlcNAc(b1-6)]Man(a1-6)[Gal(b1-4)GlcNAc(b1-2)Man(a1-3)]Man(b1-4)GlcNAc(b1-4)[Fuc(a1-6)]GlcNAc", "summary_of_the_method": "as §1"}, "[9]": {"target": "Gal(b1-4)GlcNAc(b1-2)[Gal(b1-4)GlcNAc(b1-6)]Man(a1-6)[GlcNAc(b1-4)][Gal(b1-4)GlcNAc(b1-2)Man(a1-3)]Man(b1-4)GlcNAc(b1-4)GlcNAc", "summary_of_the_method": "as §1"}, "[10]": {"target": "Gal(b1-4)GlcNAc(b1-2)[Gal(b1-4)GlcNAc(b1-6)]Man(a1-6)[GlcNAc(b1-4)][Gal(b1-4)GlcNAc(b1-2)[Gal(b1-4)GlcNAc(b1-4)]Man(a1-3)]Man(b1-4)GlcNAc(b1-4)[Fuc(a1-6)]GlcNAc", "summary_of_the_method": "as §1"}, "[11]": {"target": "Gal(b1-4)GlcNAc(b1-3)Gal(b1-3)GalNAc", "summary_of_the_method": "as §1"}, "[12]": {"target": "Gal(b1-4)GlcNAc(b1-3)Gal(b1-3)GlcNAc", "summary_of_the_method": "as §1"}, "[13]": {"target": "Gal(b1-4)GlcNAc(b1-3)Gal(b1-4)Glc", "summary_of_the_method": "as §1"}, "[14]": {"target": "Gal(b1-4)GlcNAc(b1-3)Gal(b1-4)GlcNAc", "summary_of_the_method": "as §1"}, "[15]": {"target": "Gal(b1-4)GlcNAc(b1-3)Gal(b1-4)GlcNAc(b1-2)Man(a1-3)[Gal(b1-4)GlcNAc(b1-3)Gal(b1-4)GlcNAc(b1-2)Man(a1-6)]Man(b1-4)GlcNAc(b1-4)GlcNAc", "summary_of_the_method": "as §1"}, "[16]": {"target": "Gal(b1-4)GlcNAc(b1-3)Gal(b1-4)GlcNAc(b1-2)Man(a1-3)[Gal(b1-4)GlcNAc(b1-3)Gal(b1-4)GlcNAc(b1-2)Man(a1-6)]Man(b1-4)GlcNAc(b1-4)[Fuc(a1-6)]GlcNAc", "summary_of_the_method": "as §1"}, "[17]": {"target": "Gal(b1-4)GlcNAc(b1-3)Gal(b1-4)GlcNAc(b1-2)[Gal(b1-4)GlcNAc(b1-3)Gal(b1-4)GlcNAc(b1-6)]Man(a1-6)[Gal(b1-4)GlcNAc(b1-3)Gal(b1-4)GlcNAc(b1-2)Man(a1-3)]Man(b1-4)GlcNAc(b1-4)GlcNAc", "summary_of_the_method": "as §1"}, "[18]": {"target": "Gal(b1-4)GlcNAc(b1-3)Gal(b1-4)GlcNAc(b1-2)[Gal(b1-4)GlcNAc(b1-3)Gal(b1-4)GlcNAc(b1-6)]Man(a1-6)[Gal(b1-4)GlcNAc(b1-3)Gal(b1-4)GlcNAc(b1-2)Man(a1-3)]Man(b1-4)GlcNAc(b1-4)[Fuc(a1-6)]GlcNAc", "summary_of_the_method": "as §1"}, "[19]": {"target": "Gal(b1-4)GlcNAc(b1-3)Gal(b1-4)GlcNAc(b1-3)Gal(b1-4)GlcNAc", "summary_of_the_method": "as §1"}, "[20]": {"target": "Gal(b1-4)GlcNAc(b1-3)Gal(b1-4)GlcNAc(b1-3)Gal(b1-4)GlcNAc(b1-2)Man(a1-3)[Gal(b1-4)GlcNAc(b1-3)Gal(b1-4)GlcNAc(b1-3)Gal(b1-4)GlcNAc(b1-2)Man(a1-6)]Man(b1-4)GlcNAc(b1-4)GlcNAc", "summary_of_the_method": "as §1"}, "[21]": {"target": "Gal(b1-4)GlcNAc(b1-3)Gal(b1-4)GlcNAc(b1-3)Gal(b1-4)GlcNAc(b1-2)Man(a1-3)[Gal(b1-4)GlcNAc(b1-3)Gal(b1-4)GlcNAc(b1-3)Gal(b1-4)GlcNAc(b1-2)Man(a1-6)]Man(b1-4)GlcNAc(b1-4)[Fuc(a1-6)]GlcNAc", "summary_of_the_method": "as §1"}, "[22]": {"target": "Gal(b1-4)GlcNAc(b1-3)Gal(b1-4)GlcNAc(b1-3)Gal(b1-4)GlcNAc(b1-2)[Gal(b1-4)GlcNAc(b1-3)Gal(b1-4)GlcNAc(b1-3)Gal(b1-4)GlcNAc(b1-6)]Man(a1-6)[Gal(b1-4)GlcNAc(b1-3)Gal(b1-4)GlcNAc(b1-3)Gal(b1-4)GlcNAc(b1-2)Man(a1-3)]Man(b1-4)GlcNAc(b1-4)[Fuc(a1-6)]GlcNAc", "summary_of_the_method": "as §1"}}, "note": "Some of the results follow."}
{"binder": "MUB70 (Lactobacillus reuteri) (protein) CVHVQYIDGETDQMLRQDDLDGYTDETIPYSTAEGIKKFEGDGYELFKDNFPAGEKFDNDDTNDQFYTVIF", "values": [{"measurement": "glycan array binding signal (z-score)", "setting": "[1]", "result": -0.484}, {"measurement": "glycan array binding signal (z-score)", "setting": "[2]", "result": 0.734}, {"measurement": "glycan array binding signal (z-score)", "setting": "[3]", "result": 0.112}, {"measurement": "glycan array binding signal (z-score)", "setting": "[4]", "result": 0.058}, {"measurement": "glycan array binding signal (z-score)", "setting": "[5]", "result": -0.687}, {"measurement": "glycan array binding signal (z-score)", "setting": "[6]", "result": -0.567}, {"measurement": "glycan array binding signal (z-score)", "setting": "[7]", "result": -0.71}, {"measurement": "glycan array binding signal (z-score)", "setting": "[8]", "result": -0.356}, {"measurement": "glycan array binding signal (z-score)", "setting": "[9]", "result": -0.943}, {"measurement": "glycan array binding signal (z-score)", "setting": "[10]", "result": -0.625}, {"measurement": "glycan array binding signal (z-score)", "setting": "[11]", "result": -0.148}, {"measurement": "glycan array binding signal (z-score)", "setting": "[12]", "result": 0.869}, {"measurement": "glycan array binding signal (z-score)", "setting": "[13]", "result": -0.185}, {"measurement": "glycan array binding signal (z-score)", "setting": "[14]", "result": -0.399}, {"measurement": "glycan array binding signal (z-score)", "setting": "[15]", "result": 0.425}, {"measurement": "glycan array binding signal (z-score)", "setting": "[16]", "result": 1.16}, {"measurement": "glycan array binding signal (z-score)", "setting": "[17]", "result": 0.792}, {"measurement": "glycan array binding signal (z-score)", "setting": "[18]", "result": 0.26}, {"measurement": "glycan array binding signal (z-score)", "setting": "[19]", "result": -0.641}, {"measurement": "glycan array binding signal (z-score)", "setting": "[20]", "result": 0.398}, {"measurement": "glycan array binding signal (z-score)", "setting": "[21]", "result": 0.333}, {"measurement": "glycan array binding signal (z-score)", "setting": "[22]", "result": 0.348}]}
